Key:
[1] = test system: HeLa cells; test: Co-localization study by confocal microscopy; type: cell-based, human; conditions: 10 μM, 1 h
[2] = test system: HeLa cells; test: Cell imaging by fluorescence microscopy (cellular uptake); type: cell-based, human; conditions: 10 μM, 20 min

| Structure (SMILES) | Pearson's coefficient R, green and orange emission vs Hoechst 33342 [1] | Pearson's coefficient R, green and orange emission vs Mitotracker Red [1] | Pearson's coefficient R, green emission vs LysoTracker Red ([1]; emission channel 500–550 nm) | Pearson's coefficient R, orange emission vs LysoTracker Red ([1]; emission channel 650–700 nm) | Cellular uptake (green emission in cytoplasm) [2] |
| --- | --- | --- | --- | --- | --- |
| CCCC[N+]#[C][Pt-2]12[c]3ccccc3-c3cccc([n+]31)-c1cc[nH][n+]12.[Cl-] (stereo not drawn) [Complex 2] | < 0.15 | < 0.15 | 0.60 | 0.75 | efficient cellular uptake |
| Cc1cccc(C)c1[N+]#[C][Pt-2]12[c]3ccccc3-c3cccc([n+]31)-c1cc[nH][n+]12.[Cl-] (stereo not drawn) [Complex 1a, [Pt(C^N^N^pyr)(C?NR^1)]Cl] | – | – | – | – | efficient cellular uptake |

Reference: paper PMC5707448, “Luminescent platinum(II) complexes with self-assembly and anti-cancer properties: hydrogel, pH dependent emission color and sustained-release properties under physiological conditions” (Chemical Science, 2015)
